In article doi:10.1101/508549:
Results are given in words; binding and its absence hold for the method and conditions named. Binding seen in cells or lysates may run through a third protein. These calls come from enrichment with a bait or labelling near it, and not all partners need be listed. Values belong to the binder of their own block, whether it stands above or below them.

By UniProt entry, the sequences of proteins in these tests, tags left out. Where a name states a change or a piece, a line headed by the entry shows the natural chain unless it says otherwise.
UniProt Q07955: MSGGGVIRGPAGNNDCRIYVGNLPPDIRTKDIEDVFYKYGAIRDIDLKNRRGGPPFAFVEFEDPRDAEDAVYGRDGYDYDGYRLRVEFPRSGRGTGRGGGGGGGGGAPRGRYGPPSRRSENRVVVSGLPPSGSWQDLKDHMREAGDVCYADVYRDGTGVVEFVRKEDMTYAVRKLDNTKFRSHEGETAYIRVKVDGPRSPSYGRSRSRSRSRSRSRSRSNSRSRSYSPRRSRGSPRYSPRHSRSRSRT

Biological target: SRSF1 mSD-mCherry-NLS-[FLAG]3 (phosphomimetic RS-domain mutant) (human) (UniProt Q07955)
Assay: affinity purification with mass spectrometry

- binding: binds
B1: TRA2a (protein, UniProt Q13595 1-282)
chain: MSDVEENNFEGRESRSQSKSPTGTPARVKSESRSGSRSPSRVSKHSESHSRSRSKSRSRSRRHSHRRYTRSRSHSHSHRRRSRSRSYTPEYRRRRSRSHSPMSNRRRHTGSRANPDPNTCLGVFGLSLYTTERDLREVFSRYGPLSGVNVVYDQRTGRSRGFAFVYFERIDDSKEAMERANGMELDGRRIRVDYSITKRAHTPTPGIYMGRPTHSGGGGGGGGGGGGGGGGRRRDSYYDRGYDRGYDRYEDYDYRYRRRSPSPYYSRYRSRSRSRSYSPRRY

- binding: binds
B2: TRA2b (protein, UniProt P62995 1-288)
chain: MSDSGEQNYGERESRSASRSGSAHGSGKSARHTPARSRSKEDSRRSRSKSRSRSESRSRSRRSSRRHYTRSRSRSRSHRRSRSRSYSRDYRRRHSHSHSPMSTRRRHVGNRANPDPNCCLGVFGLSLYTTERDLREVFSKYGPIADVSIVYDQQSRRSRGFAFVYFENVDDAKEAKERANGMELDGRRIRVDFSITKRPHTPTPGIYMGRPTYGSSRRRDYYDRGYDRGYDDRDYYSRSYRGGGGGGGGWRAAQDRDQIYRRRSPSPYYSRGGYRSRSRSRSYSPRRY
